# Library screening results

The filed quantity is “Percent Effect” (%). The record does not define 0% and 100%; most values in the screen are far below 50% and negative numbers occur (in some assays of this library far below -100). This is an unselected part of the compounds tested.

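Assay on Mycobacterium tuberculosis, filed only as a heat shock assay from Cornell; the read-out is not stated. The concentration is filed as 10 mM, unlikely as a test dose, so the dose is not known. The record gives no direction; compounds that gave an IC50 in retests scored well above the rest, so higher reads as stronger inhibition. Size under these conditions: about 69,000 compounds, about 930 of them at 50% or above in at least one test.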

- CC(=O)Nc1cccc([C@H]2C[C@@H](NC(C)=O)CCO2)c1 : -9.823%
- CCS(=O)(=O)CC(=O)NC(C)c1ccc(OCCC(C)C)cc1 (centres unmarked) : -5.992%
- COC(=O)C(C)(C)NC(=O)c1cnc(Cc2ccc(F)cc2)s1 : -36.13%
- CS(=O)(=O)CCCNC1(c2ccc(Br)cc2)CCC1 : 7.181%
- O=C1NCC2(CCCN(C(=O)c3c[nH]nc3C3CCCCC3)C2)O1 (centres unmarked) : 20.07%
- COc1ccccc1CN(Cc1cccnc1)Cc1nccs1 : -6.722%
- Cn1nc(C2CCNC2)c2c(C(=O)NCC(F)(F)F)cc(C3CC3)nc21 (centres unmarked) : -34.51%
- Nc1cc(C(=O)NC2CCCN(CCCc3ccccc3)C2)ccn1 (centres unmarked) : -5.707%
- O=C(NCCSCc1ccco1)c1ccc(N2CCOCC2)cc1 : 0.2671%
- CC(Cn1cccn1)NC(=O)Nc1ccc(N2CCCCC2)nc1 (centres unmarked) : -11.74%
- Cc1cc(C)n(CC(C)NCc2nc(-c3cccnc3)no2)n1 (centres unmarked) : -12.22%
- CNc1cc(C)nc(N2CCC3(CC2)[C@H](O)C[C@@H]3OCCN(C)C)n1 : -15.04%
- CN(C)CCN1CC(C(=O)NCc2cn3cccnc3n2)CC1=O (centres unmarked) : -10.73%
- Cc1nn(CC(=O)O)c(C)c1NS(=O)(=O)c1cc2ccccc2s1 : -12.46%
- CCc1nc(N2CCC3(CCC(=O)N(Cc4ccncc4)C3)CC2)no1 : -21.42%
- CC(C)(CNC(=O)c1ccco1)CNC(=O)c1ccco1 : -184%
- CCc1nc(NS(=O)(=O)c2cc(C)ccc2F)no1 : -4.558%
- Cc1nc(CN(C)C2CCN(Cc3ccc4c(c3)OCCO4)C2)no1 (centres unmarked) : -18.02%
- CN1CCC(c2nccnc2Nc2cnccn2)CC1 : 15.55%
- Cc1cccc(OCc2ccc(C(=O)N3N=CCC3(O)C(F)(F)F)o2)c1 (centres unmarked) : 42.41%
- CCc1ncc2c(n1)CN(CC1CCCCO1)CC2 (centres unmarked) : -5.679%
- O=C(C1CC1)N1CCCC1C1CCN(Cc2ccccc2)CC1 (centres unmarked) : -16.68%
- CC(C)(C)C(=O)CN1Cc2ccccc2NCCC1=O : -9.787%
- C1CCN(CCOC2CCNCC2)C1 : -24.69%
- COc1cc(OC)nc(N2CCC3(CC2)OCCCC3O)n1 (centres unmarked) : 20.97%
- [H][C@]12CC[C@]([H])(CN(Cc3[nH]cnc3C)C1)N(Cc1cccc(C)n1)C2 : -13.88%
- Cn1cc(C2CC3(CCN(C(=O)c4ccsc4)CC3)NC2=O)cn1 (centres unmarked) : 21.57%
- Cc1ccc(NS(=O)(=O)c2cc(C(=O)O)oc2C)c(Br)c1 : -3.427%
- O=C(O)C(F)(F)F.O=C(O)C(F)(F)F.[H][C@@]12CN(CC3CCOCC3)C[C@@]1([H])N(Cc1ccncc1)C(=O)CO2 : -5.107%
- O=C(Cc1cccnc1)N1CCC(OCc2ccccc2)CC1 : 12.34%
- COC(=O)c1c(C(F)(F)F)cnc(OC)c1Cl : 0.4558%
- Cc1nc(-c2cn(CCN)nn2)n(-c2ccc(C(F)(F)F)cc2)n1 : -3.177%
- CCn1ncc2c1C(COC)N(C(=O)c1cccs1)CC2.O=C(O)C(F)(F)F (centres unmarked) : 19.39%
- COCCNC(=O)c1cc(OC)c2ccoc2c1 : -4.606%
- Cc1cc(NC(=O)C(C)Cn2cc(Br)cn2)no1 (centres unmarked) : 6.011%
- Cc1ncsc1CN(C)Cc1cc2c(cc1OC(F)F)OCO2 : -12.53%
- CCCN(C(=O)CN1CCN(CC(C)O)CC1)C1=CCCCC1 (centres unmarked) : -33.89%
- CC(C)(C)c1cn2nc(N3CCCCC3Cn3cncn3)sc2n1 (centres unmarked) : -19.3%
- CC(NC(=O)CCCn1cnc2ccccc2c1=O)c1ncn[nH]1 (centres unmarked) : 0.9189%
- Cc1[nH]ccc1C(=O)N[C@H]1CN(S(C)(=O)=O)C[C@@H]1C1CC1 : 38.79%
- [H][C@@]12CCN(c3ncccn3)C[C@]1([H])[C@@H](CNC(=O)c1ccnnc1)OC2 : -1.533%
- CNc1cccc(C2CCCN(C(=O)c3cscn3)C2)n1 (centres unmarked) : -25.27%
- CC(=O)N1CCOCC2(CCN(Cc3ccc(C)s3)CC2)C1.O=C(O)C(F)(F)F : 22.5%
- [H][C@@]12COC[C@]1([H])[C@@H](OCC1CCN(C)CC1)CN2Cc1ccc(C)o1 : 26.07%

Some entries from above, unchanged:

- [H][C@]12CC[C@]([H])(CN(Cc3[nH]cnc3C)C1)N(Cc1cccc(C)n1)C2 : -13.88%
- COc1ccccc1CN(Cc1cccnc1)Cc1nccs1 : -6.722%
- Cc1nc(CN(C)C2CCN(Cc3ccc4c(c3)OCCO4)C2)no1 (centres unmarked) : -18.02%

The values are deposited in ChEMBL (CHEMBL3988442, “University of Dundee, Small-Polar-MMV Screening Library” (2021)).